Measurements reported in PubChem BioAssay AID686943 (Drosophila RNAi Screening Center, 2013)

Aim: 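Fly genes whose loss alters ERK activation after insulin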 (primary screen)
Cells: Drosophila S2R+ haemocyte-like cells expressing YFP-tagged ERK (Rolled)
Reagent: long dsRNA against Drosophila genes
Conditions: insulin stimulation versus unstimulated cells; dose and duration not given
Read-out: 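Per-plate z-scores of phospho-ERK immunostaining normalised to YFP-tagged ERK, measured with and without insulin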
Direction: replicate 1, z-score of dpERK with insulin and replicate 2, z-score of dpERK with insulin: higher = more active ERK per ERK-YFP after insulin
The deposit covers about 23,000 reagents; this is a random part of those that have a named target and a result. 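Extra replicates exist only for a retested subset of genes; insulin dose and duration not given; both raised and lowered dpERK matter.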 Not all columns of the deposit are shown. Not stated in the record: the amount of reagent, the time to read-out.

UK114 [DRSC01973] | replicate 1, z-score of dpERK with insulin = -0.59; replicate 2, z-score of dpERK with insulin = 0.64
CR30029 [DRSC06724] | replicate 1, z-score of dpERK with insulin = -0.38; replicate 2, z-score of dpERK with insulin = -0.54
CG31867 [DRSC03338] | replicate 1, z-score of dpERK with insulin = -0.29; replicate 2, z-score of dpERK with insulin = -0.97
CG4783 [DRSC15644] | replicate 1, z-score of dpERK with insulin = -0.11; replicate 2, z-score of dpERK with insulin = 1.57

Reformatted: 2 of the entries above
gene,dsRNA,"replicate 1, z-score of dpERK with insulin","replicate 2, z-score of dpERK with insulin"
CR30029,DRSC06724,-0.38,-0.54
CG31867,DRSC03338,-0.29,-0.97

Next results follow:
Cph [DRSC17507] | replicate 1, z-score of dpERK with insulin = -0.1; replicate 2, z-score of dpERK with insulin = -1.4
Cph [DRSC18434] | replicate 1, z-score of dpERK with insulin = 0.73; replicate 2, z-score of dpERK with insulin = 1.36
CG7231 [DRSC03034] | replicate 1, z-score of dpERK with insulin = -0.02; replicate 2, z-score of dpERK with insulin = 0.78
CG31326 [DRSC16532] | replicate 1, z-score of dpERK with insulin = 0.27; replicate 2, z-score of dpERK with insulin = -1.66
Mipp1 [DRSC11223] | replicate 1, z-score of dpERK with insulin = 1.85; replicate 2, z-score of dpERK with insulin = 0.19
pont [DRSC17029] | replicate 1, z-score of dpERK with insulin = 0.55; replicate 2, z-score of dpERK with insulin = -0.57
CG17196 [DRSC15189] | replicate 1, z-score of dpERK with insulin = -0.1; replicate 2, z-score of dpERK with insulin = -0.83
Tb [DRSC15815] | replicate 1, z-score of dpERK with insulin = -0.37; replicate 2, z-score of dpERK with insulin = 0.07
